For the test, the target named is T1, Drosophila Tom40 subunit fused to a C-terminal FLAG-HA epitope tag (D. melanogaster) (UniProt Q9U4L6).
T1 sequence: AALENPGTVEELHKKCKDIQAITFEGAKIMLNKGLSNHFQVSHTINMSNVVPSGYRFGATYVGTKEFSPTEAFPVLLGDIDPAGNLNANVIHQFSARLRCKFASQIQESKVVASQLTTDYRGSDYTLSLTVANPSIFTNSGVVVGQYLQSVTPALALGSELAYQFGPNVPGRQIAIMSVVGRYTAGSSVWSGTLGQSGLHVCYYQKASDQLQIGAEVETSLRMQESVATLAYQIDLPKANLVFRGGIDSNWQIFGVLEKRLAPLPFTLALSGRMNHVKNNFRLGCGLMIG
Nature of the test: affinity purification with mass spectrometry; Tom40-FLAG-HA held on anti-FLAG M2 beads from detergent-solubilised fly head membranes; 50 mM Tris-HCl pH 7.4, 150 mM NaCl; washes with 1 M urea and 500 mM NaCl; on-column exchange into non-ionic amphipol; elution with FLAG peptide; tryptic digest mass spectrometry of gel bands.

Results are given in words; binding and its absence hold for the method and conditions named. Binding seen in cells or lysates may run through a third protein. Here binding means that the protein was enriched with, or labelled near, the bait; the list need not be complete. Tags and fused reporters may be left off the sequences shown.

As for “Tom7 (endogenous Drosophila TOM subunit)”, the binding entry is “binds”.

These data come from article PMC11707698, “Structure of an ex vivoDrosophila TOM complex determined by single-particle cryoEM” (IUCrJ, 2025).
